Reference: the odorant receptor screen of Mainland et al. (2015)
Values joined by “and” are separate entries in the source; they are usually repeats but may differ in a detail not shown here. Equal values may be shown once. This is one part of the list. Each value is one well over the wells without odorant, computed here; the data are noisy.

Columns and labels:
Assay in all cases: odorant receptor activation (CRE luciferase / Renilla) (fold of no-odor wells); higher = more activation
Conditions in all cases: 100 µM
[1] = test system: OR2AG2 Y28C/R54P/R299G clone 1486
[2] = test system: OR2AJ1 M1V clone 1448
[3] = test system: OR2AK2 V188M clone 1415
[4] = test system: OR2AP1 clone 1256
[5] = test system: OR2AT4 clone 1522
[6] = test system: OR2B11 clone 1418
[7] = test system: OR2B2 clone 1333
[8] = test system: OR2B2 clone 1544
[9] = test system: OR2B3 clone 1063
[10] = test system: OR2B6 clone 1436
[11] = test system: OR2B8 Indel clone 1076
[12] = test system: OR2C1 C149W clone 1282
[13] = test system: OR2C1 G16S/C149W/R229H clone 1408
[14] = test system: OR2C1 P58S/C149W clone 1409
[15] = test system: OR2C1 clone 1406
[16] = test system: OR2C1 clone 1407
[17] = test system: OR2C3 T20A/P68S/L289V clone 1454
[18] = test system: OR2D2 clone 1235
[19] = test system: OR2D3 L66I clone 1381
[20] = test system: OR2F1 clone 1082

Compound | odorant receptor activation [1] | odorant receptor activation [2] | odorant receptor activation [3] | odorant receptor activation [4] | odorant receptor activation [5] | odorant receptor activation [6] | odorant receptor activation [7] | odorant receptor activation [8] | odorant receptor activation [9] | odorant receptor activation [10] | odorant receptor activation [11] | odorant receptor activation [12] | odorant receptor activation [13] | odorant receptor activation [14] | odorant receptor activation [15] | odorant receptor activation [16] | odorant receptor activation [17] | odorant receptor activation [18] | odorant receptor activation [19] | odorant receptor activation [20]
CCC(C)=O [2-butanone] | 1.02 | 0.965 | 1.19 | 1.39 | 1.25 | 1.51 | 0.876 | 1.14 | 7.1 | 1.23 | 3.65 | 1.24 | 1.3 | 1.39 | 1.26 | 0.917 | 1.42 | 0.745 | 0.494 | 2.51
CCOc1cc(C=O)ccc1O [ethyl vanillin] | 1.19 and 2.44 and 1.28 | 1.34 and 1.56 and 1.32 | 1.11 and 1.2 | 1.85 and 1 | 1.32 and 2.54 and 1.52 | 0.748 and 1.04 | 2.16 and 1.26 | 1.4 | 1.51 and 0.966 | 1.01 and 1.63 | 2.24 and 0.915 | 1.17 and 1.04 | 1.37 and 1.1 | 1.3 and 1.11 | 1.13 and 1.03 | 1.13 | 0.697 | 0.93 | 0.891 and 1.16 | 1.35 and 1.15
CS [methanethiol] | 0.821 | 0.894 | 0.794 | 0.692 | 0.917 | 0.839 | 0.84 | 0.995 | 1.04 | 0.91 | 1.02 | 1.12 | 0.669 | 0.813 | 0.874 | 1.54 | 0.608 | 0.818 | 0.701 | 0.903
CCCCOC(C)=O [butyl acetate] | 0.74 | 0.139 | 0.225 | 0.809 | 1.16 | 0.298 | 0.762 | 0.934 | 1.26 | 0.23 | 1.31 | 0.814 | 0.381 | 0.32 | 0.409 | 0.328 | 1.27 | 0.722 | 0.284 | 1.08
